Amino acid sequences for entries named in this document (tags omitted).
UniProt Q0JBA9, entry or part of it: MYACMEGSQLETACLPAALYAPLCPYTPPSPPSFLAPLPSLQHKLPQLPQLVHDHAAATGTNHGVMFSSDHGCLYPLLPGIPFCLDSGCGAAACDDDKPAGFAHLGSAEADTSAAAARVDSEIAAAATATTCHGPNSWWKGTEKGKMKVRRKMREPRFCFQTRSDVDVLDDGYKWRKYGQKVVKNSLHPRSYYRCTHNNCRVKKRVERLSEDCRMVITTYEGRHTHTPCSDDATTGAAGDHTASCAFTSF

This is one part of the list.
Each sequence was assayed against OsWRKY34 (Oryza sativa, UniProt Q0JBA9 1-250) (assay: protein-binding microarray (RPBM); PBS, 2% BSA, 51.3 ng/ul salmon testes DNA, 50 uM zinc acetate, 200 nM TF, 25 C, 1 h; high values mean tight binding). Conditions: protein: recombinant; tags: N-terminal polyhistidine and DsRed monomer fusion (pET32a); label: CyDye5-dUTP incorporated in the synthesized complementary strand; 3' TTTTT single-stranded linker to array surface; dsDNA, one strand shown.
Summary of the method: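 Ni–NTA purification followed expression in E. coli BL21-CodonPlus of transcription factors fused N-terminally to a polyhistidine tag and DsRed. At 200 nM in PBS with 2% BSA, salmon testes DNA and 50 µM zinc acetate, the protein was incubated for 1 h at 25 °C with a custom Agilent array that had been primer-extended with Cy5-dUTP and blocked with 2% BSA. After washing, the array was read on an Axon 4000B scanner. The binding signal is per-feature fluorescence intensity in arbitrary units.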
With “GGTCATACTCTCTTCGTCCCATTTAATGTACAATCATGCTCGGAGTCACCTAGTGCAG” the binding signal was 8860 fluorescence intensity (a.u.).
In the case of “TTAGTTTTGTTAGATCGTCGATTTTGATTAGTGCGTTTGACGGAGTCACCTAGTGCAG”, the binding signal is reported as 9190 fluorescence intensity (a.u.).
For “TTCCTCCGTTTCACAATGTAAAATTTTCTAGCATTACTCTCGGAGTCACCTAGTGCAG”, the binding signal was 8660 fluorescence intensity (a.u.).
With “GCCAACCACCATTAGCCAACTAACTAATCATCGTCTACGTCGGAGTCACCTAGTGCAG” the binding signal was 9880 fluorescence intensity (a.u.).
In the case of “GCTCTCTCTCTCTCTCTCTCTCGCTGTCTCTCTCCCTCCCCGGAGTCACCTAGTGCAG”, the binding signal is reported as 9110 fluorescence intensity (a.u.).
In the case of “CTTTCCAGTTCCTTGTTTCTATCACACTCACTAGGACCAACGGAGTCACCTAGTGCAG”, the binding signal is reported as 8900 fluorescence intensity (a.u.).
For “ATCCCCGGTCATCTCGCCTCGTCTCGTCCCGTCCCTGCGCCGGAGTCACCTAGTGCAG”, the binding signal was 15100 fluorescence intensity (a.u.).
“TCTGGGAAAGAATCCCAAATGTGTCGCCTCTATCTCGCCTCGGAGTCACCTAGTGCAG” was tested, and the binding signal was 10400 fluorescence intensity (a.u.).
“GAACTAACACACAAACTTCCAACTTTTCCATCACATCAAACGGAGTCACCTAGTGCAG” was tested, and the binding signal was 13200 fluorescence intensity (a.u.).
With “TGCTTACACACCATCCCATCCTCCCTCTCCACCGTCGGATCGGAGTCACCTAGTGCAG” the binding signal was 8460 fluorescence intensity (a.u.).
In the case of “CGATGGTTGGTTGTTATGTATTTTTAAGAATTTTTAGTACCGGAGTCACCTAGTGCAG”, the binding signal is reported as 8060 fluorescence intensity (a.u.).
“ACCGCACCACCTCTAGGTCGCCACGACCAAGAACACACATCGGAGTCACCTAGTGCAG” was tested, and the binding signal was 10600 fluorescence intensity (a.u.).
In the case of “AGGAGCCAGACTTAGTTGGTGTAAGCCATTTACTAGTTGACGGAGTCACCTAGTGCAG”, the binding signal is reported as 22800 fluorescence intensity (a.u.).
With “ATGATATGAGCTGATATTGTTATTCATCTCAACTTTTCTTCGGAGTCACCTAGTGCAG” the binding signal was 8560 fluorescence intensity (a.u.).
In the case of “TATGCTTCATCTGTTCTTCTACATTGTTATCTACTATCTGCGGAGTCACCTAGTGCAG”, the binding signal is reported as 10100 fluorescence intensity (a.u.).
For “TTTGTTGCGTTTCTCCGCCCTTCGGCCACACCGGCCGGCTCGGAGTCACCTAGTGCAG”, the binding signal was 11600 fluorescence intensity (a.u.).
For “CAACACATTGCTGTAATTTGCCATCAGCTTTGGCCATCATCGGAGTCACCTAGTGCAG”, the binding signal was 10500 fluorescence intensity (a.u.).
“GGGAGGGAGAGCGACGTGAGAGAGATGGGAGGGGAGGGAGCGGAGTCACCTAGTGCAG” was tested, and the binding signal was 10200 fluorescence intensity (a.u.).
“GTCGGACGTTCCGTTTCCCACACTTCTGACTGCAAAAACCCGGAGTCACCTAGTGCAG” was tested, and the binding signal was 8170 fluorescence intensity (a.u.).
With “GGTGGGGTGAGCGTGTGTGCGGCGCTAGGGTTCGCGAGGGCGGAGTCACCTAGTGCAG” the binding signal was 9200 fluorescence intensity (a.u.).
“CTCCTCCTCTGGCGCCGCCGCTCCGATGCCGCCCACCGCCCGGAGTCACCTAGTGCAG” was tested, and the binding signal was 8240 fluorescence intensity (a.u.).
For “CTTCAAGGCTTTGTGGTGACACTGATATCTCTCTAGTCTCCGGAGTCACCTAGTGCAG”, the binding signal was 8680 fluorescence intensity (a.u.).
In the case of “GCTCGATCTTCTTTTTTTTCAAATAGTTTGGATCATTTATCGGAGTCACCTAGTGCAG”, the binding signal is reported as 10200 fluorescence intensity (a.u.).
For “AACTGATCCTAATTAACACTACCCATATACTCTTTTCGTCCGGAGTCACCTAGTGCAG”, the binding signal was 8060 fluorescence intensity (a.u.).
For “TTCTCTCAACCCCATCGGTCTCATGCCTGATCGGATCGATCGGAGTCACCTAGTGCAG”, the binding signal was 9770 fluorescence intensity (a.u.).
For “ACGTTGGTTGCCCTTTTTTTCGCTCAGTCCCCACGGCAAACGGAGTCACCTAGTGCAG”, the binding signal was 13500 fluorescence intensity (a.u.).
“GTCTGCATTGAGGCTGCATTTCTGCATTGACCATCCTAGTCGGAGTCACCTAGTGCAG” was tested, and the binding signal was 8410 fluorescence intensity (a.u.).
With “TGCCTCCACACTTTGCCCATTTCCCTAGTTTGTCCCTCTCCGGAGTCACCTAGTGCAG” the binding signal was 8080 fluorescence intensity (a.u.).
“ACTTTAATCTCCCGTCTTATTTGAATTTTTTTTATGATTACGGAGTCACCTAGTGCAG” was tested, and the binding signal was 8200 fluorescence intensity (a.u.).
For “TTCGCCTTTTCGTCTCCTATTATTACCGTTCTTCCTTTTACGGAGTCACCTAGTGCAG”, the binding signal was 10500 fluorescence intensity (a.u.).
“TACCAGGACTTGAGTTGATCCTTTTTCGCCGCTCACGCCGCGGAGTCACCTAGTGCAG” was tested, and the binding signal was 8390 fluorescence intensity (a.u.).
For “TACCATATTCGTATCCGCATCCGCATGCAACTATCCGCATCGGAGTCACCTAGTGCAG”, the binding signal was 8140 fluorescence intensity (a.u.).
In the case of “TTAATCTACAAGCTAGTGTGAACCATGTATACCTTTCTTCCGGAGTCACCTAGTGCAG”, the binding signal is reported as 8710 fluorescence intensity (a.u.).
“GCCGCCCCACCCACCACCACCACCACCGCGCCGCCACGCGCGGAGTCACCTAGTGCAG” was tested, and the binding signal was 9300 fluorescence intensity (a.u.).
“TTCTGCAGGGCGCATTGAATGCCATATTTTGAAATTTCTGCGGAGTCACCTAGTGCAG” was tested, and the binding signal was 8850 fluorescence intensity (a.u.).
For “TATTATATATTCTTTGGGAAAGCGTTGGATTAGTTTTTCTCGGAGTCACCTAGTGCAG”, the binding signal was 8780 fluorescence intensity (a.u.).
With “GTCGTGTGGCCATATATCTCTTCGAGCTGGTGGGGCTTGACGGAGTCACCTAGTGCAG” the binding signal was 8530 fluorescence intensity (a.u.).
For “CTCCATCTTTTTTAGCGTGTGTTAGAGGGAAACACGTTTGCGGAGTCACCTAGTGCAG”, the binding signal was 8430 fluorescence intensity (a.u.).
For “CACTTTACTTAGGCTCTGTTCGTTTCCTGGAGTTCCCAACCGGAGTCACCTAGTGCAG”, the binding signal was 9570 fluorescence intensity (a.u.).
For “TCCGTATTTTAATGTATGACGCTGTTGACTTTCGACCTACCGGAGTCACCTAGTGCAG”, the binding signal was 13900 fluorescence intensity (a.u.).
In the case of “GCTACTATCTATACTATTATCAGCGTCACGTGAGCTCGCTCGGAGTCACCTAGTGCAG”, the binding signal is reported as 8120 fluorescence intensity (a.u.).
For “TCGCATATCTTGACTTTTTTACCCTAAAATTTGTGTCTGGCGGAGTCACCTAGTGCAG”, the binding signal was 9200 fluorescence intensity (a.u.).

Source: paper PMC7819943, “Rice protein-binding microarrays: a tool to detect cis-acting elements near promoter regions in rice”
